Experimental data published in patent US20090081697A1, “Methods of growing crystals of free and antibiotic complexed large ribosomal subunits, and methods of rationally designing or identifying antibiotics using structure coordinate data derived from such crystals” (Yeda Research and Development Co. Ltd., priority 2001, published 2009).

System: D50S (large ribosomal subunit), 23S rRNA peptidyl transferase cavity
Assay: X-ray crystallography of antibiotic-D50S complexes
Assay type: binding, D. radiodurans

Structure (SMILES) | Nucleotides of 23S rRNA interacting with the antibiotic (crystallized antibiotic-D50S complex, interacting moieties <4.5 Å apart, D. radiodurans numbering) | diameter of passage available for the nascent protein (space not occupied by erythromycin hosts a hydrated Mg2+ ion)
O=C(N[C@H](CO)[C@H](O)c1ccc([N+](=O)[O-])cc1)C(Cl)Cl [chloramphenicol] | nucleotides 2044, 2430, 2431, 2479 and 2483-2485 | –
CC[C@H]1OC(=O)[C@H](C)[C@@H](O[C@H]2C[C@@](C)(OC)[C@@H](O)[C@H](C)O2)[C@H](C)[C@@H](O[C@@H]2O[C@H](C)C[C@H](N(C)C)[C@H]2O)[C@](C)(O)C[C@@H](C)C(=O)[C@H](C)[C@@H](O)[C@]1(C)O [erythromycin] | – | 6-7 Å
